Results: PMC8875258
These are yes or no findings as the source states them, for the method shown. In cells and extracts the contact can be indirect. Some binding calls cover weakened binding; strength is not graded here. Tags and fused reporters may be left off the sequences shown.

Protein sequences, listed by entry. Tags and fused reporters are not part of them.
UniProt Q8IUC6: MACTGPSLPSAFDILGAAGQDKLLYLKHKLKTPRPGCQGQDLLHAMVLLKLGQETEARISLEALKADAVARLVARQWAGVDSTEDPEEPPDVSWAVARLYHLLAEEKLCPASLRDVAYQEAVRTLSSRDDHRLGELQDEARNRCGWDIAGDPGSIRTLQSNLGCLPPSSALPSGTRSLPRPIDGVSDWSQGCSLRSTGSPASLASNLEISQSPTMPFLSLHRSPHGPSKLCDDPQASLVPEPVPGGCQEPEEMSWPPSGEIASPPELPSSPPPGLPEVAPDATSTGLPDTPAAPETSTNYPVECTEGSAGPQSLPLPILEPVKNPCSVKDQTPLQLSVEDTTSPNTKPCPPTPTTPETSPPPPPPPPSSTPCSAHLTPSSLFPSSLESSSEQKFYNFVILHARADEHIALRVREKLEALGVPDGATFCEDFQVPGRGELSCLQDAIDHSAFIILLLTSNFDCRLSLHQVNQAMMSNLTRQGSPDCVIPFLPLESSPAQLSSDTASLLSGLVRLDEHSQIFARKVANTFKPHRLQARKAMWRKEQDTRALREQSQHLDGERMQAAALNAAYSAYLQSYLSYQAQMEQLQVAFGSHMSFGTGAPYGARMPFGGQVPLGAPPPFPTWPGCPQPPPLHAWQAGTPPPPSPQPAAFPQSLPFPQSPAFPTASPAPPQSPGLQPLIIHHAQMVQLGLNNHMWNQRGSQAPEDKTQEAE

T1: DDX50-HA (pCW57-Ddx50-HA, MEF cell line) (UniProt Q99MJ9)
T1 sequence: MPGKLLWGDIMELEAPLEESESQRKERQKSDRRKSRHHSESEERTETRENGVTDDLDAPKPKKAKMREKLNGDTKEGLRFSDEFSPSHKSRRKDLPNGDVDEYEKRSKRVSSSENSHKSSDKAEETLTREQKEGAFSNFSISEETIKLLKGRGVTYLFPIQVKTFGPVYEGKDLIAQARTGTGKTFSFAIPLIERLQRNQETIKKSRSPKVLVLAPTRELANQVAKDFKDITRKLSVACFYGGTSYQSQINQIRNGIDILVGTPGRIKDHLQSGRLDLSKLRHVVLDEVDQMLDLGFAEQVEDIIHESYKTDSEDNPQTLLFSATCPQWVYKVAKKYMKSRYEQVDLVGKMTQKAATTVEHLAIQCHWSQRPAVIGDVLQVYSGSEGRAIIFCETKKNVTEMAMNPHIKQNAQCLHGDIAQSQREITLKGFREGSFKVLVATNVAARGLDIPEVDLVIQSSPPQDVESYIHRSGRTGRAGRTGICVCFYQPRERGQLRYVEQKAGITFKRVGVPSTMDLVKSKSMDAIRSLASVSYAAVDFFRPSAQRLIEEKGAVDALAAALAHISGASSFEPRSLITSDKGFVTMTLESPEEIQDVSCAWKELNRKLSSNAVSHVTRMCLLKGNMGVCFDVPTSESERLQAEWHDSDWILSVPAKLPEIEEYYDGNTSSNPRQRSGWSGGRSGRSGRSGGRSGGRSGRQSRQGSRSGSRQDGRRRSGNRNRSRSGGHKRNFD


Assays:
[1] = molecular target: T1, DDX50-HA (pCW57-Ddx50-HA, MEF cell line); assay: co-IP; MEF DDX50-HA cell lines (doxycycline-induced) transfected with TRIF-cTAP or GFP-Flag, 1 h after transfection of 5 µg/mL PolyIC; lysis in 50 mM Tris pH 7.6, 150 mM NaCl, 1% NP40, 1 mM EDTA, 10% glycerol; M2 Flag-beads or HA-beads (which for this panel is not stated); immunoblot
[2] = molecular target: TRIF-cTAP (pCDNA3-TRIF-cTAP, in HeLa) (UniProt Q8IUC6); assay: co-IP; reciprocal immunoprecipitation; HeLa cells transfected with hDDX50-HA along with TRIF-cTAP or GFP-Flag, 1 h after transfection of 5 µg/mL PolyIC; lysis in 50 mM Tris pH 7.6, 150 mM NaCl, 1% NP40, 1 mM EDTA, 10% glycerol; M2 Flag-beads or HA-beads (which for this panel is not stated); immunoblot

Row | Molecule | binding [1] | binding [2]
1 | TRIF-cTAP (pCDNA3-TRIF-cTAP, in MEFs) (from UniProt Q8IUC6 1-712) | binds | 
2 | hDDX50-HA (pLDT-hDDX50-HA, in HeLa) (protein, UniProt Q9BQ39 1-737) MPGKLLWGDIMELEAPLEESESQKKERQKSDRRKSRHHYDSDEKSETRENGVTDDLDAPKAKKSKMKEKLNGDTEEGFNRLSDEFSKSHKSRRKDLPNGDIDEYEKKSKRVSSLDTSTHKSSDNKLEETLTREQKEGAFSNFPISEETIKLLKGRGVTYLFPIQVKTFGPVYEGKDLIAQARTGTGKTFSFAIPLIERLQRNQETIKKSRSPKVLVLAPTRELANQVAKDFKDITRKLSVACFYGGTSYQSQINHIRNGIDILVGTPGRIKDHLQSGRLDLSKLRHVVLDEVDQMLDLGFAEQVEDIIHESYKTDSEDNPQTLLFSATCPQWVYKVAKKYMKSRYEQVDLVGKMTQKAATTVEHLAIQCHWSQRPAVIGDVLQVYSGSEGRAIIFCETKKNVTEMAMNPHIKQNAQCLHGDIAQSQREITLKGFREGSFKVLVATNVAARGLDIPEVDLVIQSSPPQDVESYIHRSGRTGRAGRTGICICFYQPRERGQLRYVEQKAGITFKRVGVPSTMDLVKSKSMDAIRSLASVSYAAVDFFRPSAQRLIEEKGAVDALAAALAHISGASSFEPRSLITSDKGFVTMTLESLEEIQDVSCAWKELNRKLSSNAVSQITRMCLLKGNMGVCFDVPTTESERLQAEWHDSDWILSVPAKLPEIEEYYDGNTSSNSRQRSGWSSGRSGRSGRSGGRSGGRSGRQSRQGSRSGSRQDGRRRSGNRNRSRSGGHKRSFD |  | binds
